Data as given in publication PMC12154468.

Molecular target: Large yellow croaker dimerization partner DP1 (PcDP1), GAL4 BD fusion (large yellow croaker (Pseudosciaena crocea)) (UniProt D2CFQ6)
Test: two-hybrid; Matchmaker Two-Hybrid System; GAL4 BD-DP1 (pGBKT7) as bait, GAL4 AD-E2F1-6 (pGADT7) as preys; S. cerevisiae AH109, mating at 30 °C for 24 h; growth on SD/–Ade/–His/–Leu/–Trp plates without or with X-gal

binding: binds
Substance: Large yellow croaker E2F4 (PcE2F4), GAL4 AD fusion (from UniProt A0A5Q0MTN8)

These are yes or no findings as the source states them, for the method shown. A result given as binding can be weak or reduced; the word gives no strength.
